Data taken from paper doi:10.1101/2020.03.12.988840.
These are yes or no findings as the source states them, for the method shown. In cells and extracts the contact can be indirect. Some entries that bind do so weakly or less than the wild type. Tags and fused reporters may be left off the sequences shown.

How the values were obtained:
Assay in all cases: co-IP
GFP::SYP-3 (C. elegans) = target: T1, GFP::SYP-3 (C. elegans) (UniProt O62238)
T1 sequence: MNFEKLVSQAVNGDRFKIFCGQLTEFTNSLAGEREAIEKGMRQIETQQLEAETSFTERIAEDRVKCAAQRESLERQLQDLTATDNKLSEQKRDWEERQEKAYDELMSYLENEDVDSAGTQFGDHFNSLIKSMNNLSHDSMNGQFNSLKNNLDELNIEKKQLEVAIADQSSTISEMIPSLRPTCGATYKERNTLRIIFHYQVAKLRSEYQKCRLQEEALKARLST

MRE-11::GFP (C. elegans) = target: T2, MRE-11::GFP (C. elegans) (UniProt Q23255)
T2 sequence: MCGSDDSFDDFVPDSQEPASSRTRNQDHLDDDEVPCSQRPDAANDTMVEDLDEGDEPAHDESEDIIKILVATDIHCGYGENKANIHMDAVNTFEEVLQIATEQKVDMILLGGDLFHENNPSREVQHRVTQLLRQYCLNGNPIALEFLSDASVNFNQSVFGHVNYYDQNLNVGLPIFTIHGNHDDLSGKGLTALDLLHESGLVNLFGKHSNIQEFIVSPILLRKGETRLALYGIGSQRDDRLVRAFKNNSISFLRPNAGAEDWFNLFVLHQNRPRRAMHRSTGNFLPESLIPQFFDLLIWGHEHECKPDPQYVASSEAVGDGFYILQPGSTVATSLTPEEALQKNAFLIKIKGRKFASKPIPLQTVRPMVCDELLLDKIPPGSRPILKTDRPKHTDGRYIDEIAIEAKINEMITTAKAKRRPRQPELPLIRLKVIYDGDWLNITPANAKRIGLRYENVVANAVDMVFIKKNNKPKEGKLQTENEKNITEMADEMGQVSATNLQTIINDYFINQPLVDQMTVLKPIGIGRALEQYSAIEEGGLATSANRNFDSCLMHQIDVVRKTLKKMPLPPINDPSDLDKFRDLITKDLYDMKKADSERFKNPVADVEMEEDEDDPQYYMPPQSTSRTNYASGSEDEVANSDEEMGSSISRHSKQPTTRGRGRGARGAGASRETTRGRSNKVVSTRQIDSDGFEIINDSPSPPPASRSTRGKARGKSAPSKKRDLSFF

REC-8::GFP (C. elegans) = target: T3, REC-8::GFP (C. elegans) (UniProt Q9XUB3)
T3 sequence: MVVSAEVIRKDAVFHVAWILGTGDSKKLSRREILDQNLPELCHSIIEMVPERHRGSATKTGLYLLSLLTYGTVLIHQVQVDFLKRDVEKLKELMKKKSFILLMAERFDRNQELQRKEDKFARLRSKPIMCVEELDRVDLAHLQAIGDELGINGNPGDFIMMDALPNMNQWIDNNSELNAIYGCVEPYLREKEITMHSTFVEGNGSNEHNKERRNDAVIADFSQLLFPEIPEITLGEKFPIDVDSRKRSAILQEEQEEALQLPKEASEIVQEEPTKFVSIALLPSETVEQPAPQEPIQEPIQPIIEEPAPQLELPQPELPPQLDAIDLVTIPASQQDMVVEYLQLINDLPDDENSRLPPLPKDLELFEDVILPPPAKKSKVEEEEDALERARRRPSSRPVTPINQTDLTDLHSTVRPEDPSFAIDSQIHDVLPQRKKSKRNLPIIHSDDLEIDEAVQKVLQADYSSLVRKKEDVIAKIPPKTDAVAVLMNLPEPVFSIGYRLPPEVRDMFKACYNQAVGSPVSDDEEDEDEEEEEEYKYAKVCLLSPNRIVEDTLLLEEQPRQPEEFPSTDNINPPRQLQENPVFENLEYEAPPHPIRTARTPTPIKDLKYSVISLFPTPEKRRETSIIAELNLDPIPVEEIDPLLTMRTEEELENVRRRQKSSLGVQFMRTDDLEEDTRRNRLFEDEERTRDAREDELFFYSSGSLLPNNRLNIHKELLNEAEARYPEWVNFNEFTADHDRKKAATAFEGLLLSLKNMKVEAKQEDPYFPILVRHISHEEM

Measured: binding

B1: PARG-1 (poly(ADP-ribose) glycohydrolase), endogenous (enzyme, UniProt Q867X0 1-781)
chain: MSKKFIELGDPVTQDEKDYEDYVGVGFAHQVPTMKRRKLTEHGNTTESKEDPEEPKSRDVFVSSQSSDESQEDSAENPEIAKEVSENCENLTETLKISNIESLDNVTERSEHTLDNHKSTEPMEEDVNNKSNIDVAINSDEDDELVLEENNKEMRDGEQVQQDLFADDQELIEYPGIMKDTTTQLDITDSEVETAQKMEMIEETEADSTFVGEDSKNQRQSGTTSDEVDADSQINLATKTVRTSSSSFLSTVSTCEAPAKGRARMYQKELEKHVIAFTEGNLTLQPDLNKVDPDRNYRYCTIPNFPASQGKLREDNRYGPKIVLPQRWREFDSRGRRRDSYFYFKRKLDGYLKCYKTTGYFMFVGLLHNMWEFDPDITYKLPALEMYYKEMSELVGREEVLEKFARVARIAKTAEDILPERIYRLVGDVESATLSHKQCAALVARMFFARPDSPFSFCRILSSDKSICVEKLKFLFTYFDKMSMDPPDGAVSFRLTKMDKDTFNEEWKDKKLRSLPEVEFFDEMLIEDTALCTQVDFANEHLGGGVLNHGSVQEEIRFLMCPEMMVGMLLCEKMKQLEAISIVGAYVFSSYTGYGHTLKWAELQPNHSRQNTNEFRDRFGRLRVETIAIDAILFKGSKLDCQTEQLNKANIIREMKKASIGFMSQGPKFTNIPIVTGWWGCGAFNGDKPLKFIIQVIAAGVADRPLHFCSFGEPELAAKCKKIIERMKQKDVTLGMLFSMINNTGLPHKHFEFYVFDRISTYLSSSEDVESSKSSPSVSRA
binds: GFP::SYP-3 (C. elegans) | MRE-11::GFP (C. elegans) | REC-8::GFP (C. elegans)
